# From article PMC12449339
# The chains behind the UniProt entries cited, without tags or fusion partners.
# UniProt Q9HCM7: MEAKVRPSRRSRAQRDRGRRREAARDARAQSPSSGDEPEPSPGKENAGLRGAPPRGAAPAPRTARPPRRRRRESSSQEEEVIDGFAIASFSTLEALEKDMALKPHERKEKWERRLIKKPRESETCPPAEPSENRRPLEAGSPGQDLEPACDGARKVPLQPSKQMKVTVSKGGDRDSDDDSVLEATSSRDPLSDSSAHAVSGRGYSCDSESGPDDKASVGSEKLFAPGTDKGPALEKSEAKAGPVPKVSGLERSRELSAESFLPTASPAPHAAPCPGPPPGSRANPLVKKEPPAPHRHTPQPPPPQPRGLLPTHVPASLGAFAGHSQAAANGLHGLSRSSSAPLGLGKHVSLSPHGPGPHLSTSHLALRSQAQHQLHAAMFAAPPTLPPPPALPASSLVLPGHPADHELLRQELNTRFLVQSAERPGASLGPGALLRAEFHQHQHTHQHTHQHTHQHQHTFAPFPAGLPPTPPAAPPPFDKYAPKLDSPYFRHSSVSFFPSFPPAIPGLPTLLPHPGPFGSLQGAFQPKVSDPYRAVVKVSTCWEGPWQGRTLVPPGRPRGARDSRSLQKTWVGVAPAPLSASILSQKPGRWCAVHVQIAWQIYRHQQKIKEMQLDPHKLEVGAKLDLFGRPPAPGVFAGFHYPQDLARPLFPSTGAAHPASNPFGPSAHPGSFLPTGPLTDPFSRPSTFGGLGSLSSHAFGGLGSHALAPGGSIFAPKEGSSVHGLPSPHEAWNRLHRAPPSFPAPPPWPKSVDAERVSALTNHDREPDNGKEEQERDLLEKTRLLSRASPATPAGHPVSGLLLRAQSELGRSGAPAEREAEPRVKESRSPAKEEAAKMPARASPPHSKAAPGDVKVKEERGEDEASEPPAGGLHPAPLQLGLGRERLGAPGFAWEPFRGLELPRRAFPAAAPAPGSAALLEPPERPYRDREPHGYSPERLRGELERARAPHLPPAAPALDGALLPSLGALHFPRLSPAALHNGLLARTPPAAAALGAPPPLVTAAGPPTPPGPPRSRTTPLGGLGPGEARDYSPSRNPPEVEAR
# UniProt P25490: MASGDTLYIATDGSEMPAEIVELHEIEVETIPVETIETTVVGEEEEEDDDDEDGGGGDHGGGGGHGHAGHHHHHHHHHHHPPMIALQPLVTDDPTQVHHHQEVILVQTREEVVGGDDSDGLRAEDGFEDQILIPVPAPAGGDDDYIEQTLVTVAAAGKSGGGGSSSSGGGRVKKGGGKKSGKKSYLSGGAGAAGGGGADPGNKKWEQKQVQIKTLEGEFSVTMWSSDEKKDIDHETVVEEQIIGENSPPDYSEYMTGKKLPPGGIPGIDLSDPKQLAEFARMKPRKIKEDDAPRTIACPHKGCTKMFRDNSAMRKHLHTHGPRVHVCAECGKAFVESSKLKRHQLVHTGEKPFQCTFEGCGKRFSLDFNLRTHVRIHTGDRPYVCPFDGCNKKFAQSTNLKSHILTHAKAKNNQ
# These are yes or no findings as the source states them, for the method shown. Binding seen in cells or lysates may run through a third protein. Some binding calls cover weakened binding; strength is not graded here.
# Experiments:
# [1] = target: HA-tagged FBRSL1 long canonical isoform I1 (HA-FBRSL1-I1-pcDNA3.1), in HeLa cells (human) (UniProt Q9HCM7); test: proximity ligation; HeLa cells co-transfected with HA-FBRSL1 isoform and Flag-YY1, fixed the day after; anti-HA and anti-Flag M2 primary antibodies, Duolink PLA; signals exclusively in the nucleus
# [2] = target: HA-tagged FBRSL1 long canonical isoform I1 (HA-FBRSL1-I1-pcDNA3.1) (human) (UniProt Q9HCM7); test: co-IP; HEK293 cells transfected with HA-FBRSL1 isoform, lysed in modified RIPA buffer 24 h after transfection; pre-cleared lysate incubated with anti-HA antibody in IP buffer (20 mM HEPES, 100 mM KCl, 1% triton X-100, pH 7.2) at 4 °C, protein G magnetic beads; western blot of endogenous YY1; two biological replicates
binding [1],binding [2],Substance
binds,–,Flag-YY1 (Flag-YY1-pcDNA3.1) (from UniProt P25490 1-414)
–,binds,endogenous transcription factor Yin Yang 1 (YY1) (from UniProt P25490 1-414)
